According to patent US20230295310A1:
These are yes or no findings as the source states them, for the method shown.

The chains behind the UniProt entries cited, without tags or fusion partners. Where a name states a change or a piece, a line headed by the entry shows the natural chain unless it says otherwise.
UniProt Q95LI5: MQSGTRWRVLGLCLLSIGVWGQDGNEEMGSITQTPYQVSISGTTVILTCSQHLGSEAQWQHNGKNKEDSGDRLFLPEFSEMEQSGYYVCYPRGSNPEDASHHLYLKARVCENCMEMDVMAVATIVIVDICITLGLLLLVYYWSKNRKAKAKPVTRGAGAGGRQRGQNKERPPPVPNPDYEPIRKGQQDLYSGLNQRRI
UniProt Q95LI8: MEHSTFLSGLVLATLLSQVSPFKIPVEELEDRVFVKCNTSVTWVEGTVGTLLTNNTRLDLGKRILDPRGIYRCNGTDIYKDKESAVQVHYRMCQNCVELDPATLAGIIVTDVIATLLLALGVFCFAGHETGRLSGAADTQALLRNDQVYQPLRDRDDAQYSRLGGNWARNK
UniProt Q95LI7: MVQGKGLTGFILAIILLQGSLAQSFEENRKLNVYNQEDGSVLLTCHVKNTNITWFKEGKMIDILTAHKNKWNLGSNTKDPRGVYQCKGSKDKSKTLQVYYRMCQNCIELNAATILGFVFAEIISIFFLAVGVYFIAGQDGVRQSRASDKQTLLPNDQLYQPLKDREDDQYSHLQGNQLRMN
UniProt P07766: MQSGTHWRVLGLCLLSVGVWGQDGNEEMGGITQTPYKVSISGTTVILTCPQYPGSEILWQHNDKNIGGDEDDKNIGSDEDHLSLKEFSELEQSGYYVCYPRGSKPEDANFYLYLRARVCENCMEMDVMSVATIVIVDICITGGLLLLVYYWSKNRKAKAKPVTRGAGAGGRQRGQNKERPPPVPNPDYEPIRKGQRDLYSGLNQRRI
UniProt P04234: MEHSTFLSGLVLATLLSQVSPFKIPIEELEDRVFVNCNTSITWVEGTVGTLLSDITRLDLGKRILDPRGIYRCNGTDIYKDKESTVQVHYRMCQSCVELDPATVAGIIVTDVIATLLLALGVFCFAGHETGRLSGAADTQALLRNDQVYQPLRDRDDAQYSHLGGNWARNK
UniProt P09693: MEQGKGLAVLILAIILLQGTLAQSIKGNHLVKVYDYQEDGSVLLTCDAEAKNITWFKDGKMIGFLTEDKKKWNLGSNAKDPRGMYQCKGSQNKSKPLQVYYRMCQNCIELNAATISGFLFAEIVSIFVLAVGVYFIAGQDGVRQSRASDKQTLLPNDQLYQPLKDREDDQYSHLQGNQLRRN

Tests used:
[1] = target: cynomolgus monkey CD3 expressed on primary T cells (cynomolgus monkey) (UniProt Q95LI5+Q95LI8+Q95LI7); test: flow cytometry, 25 nM, cyno primary T cells
[2] = target: cynomolgus monkey CD3 expressed on cyno primary T cells (cynomolgus monkey) (UniProt Q95LI5+Q95LI8+Q95LI7); test: flow cytometry, cyno primary T cells
[3] = target: T1, human CD3 expressed on cells (Jurkat cells; human primary T cells) (human) (UniProt P07766+P04234+P09693); test: flow cytometry, Jurkat cells
[4] = target: T1, human CD3 expressed on cells (Jurkat cells; human primary T cells) (human); test: flow cytometry, human primary T cells

Binder	binding [1]	binding [2]	binding [3]	binding [4]
mAb 154 (antibody, V domains shown) VH: QVQLMQSGSELEKPGASVKVSCKASGYTFTSFAINWVRQAPGQGLEWMGWINTITGNPSYAQGFTGRFVFSLDTSVSTAFLQINSLKTEDTAVYYCARYVTSSGKFDYWGQGTLVTVSS VL: DIQMTQSPSSVSASVGDRVTITCRASRGISRWLDWYQQKPGKAPKLLIYAASNLQGGVPSRFSGSGSGTDFTLTIRSLQPEDFALYYCQQAKTFPFTFGPGTKVDIR	no binding (tested: FOI >=10 = positive)			
mAb 161 (antibody, V domains shown) VH: EVQLVESGGGLVQPGRSLRLSCAASGITFADYTMHWVRQAPGKGLEWVSGISWNSGSIDYADSVKGRFTISRDNAKKTLYLQMNRLRAEDTALYYCAKDSSGYGHYYFYYLDVWGKGTTVTVSS VL: EIVMTQSPATLSVSPGERATLSCRASQSVSNNLAWYQQKPGQAPRLLIYSTSTRATGIPARFSGSRSGTEFTLTISSLQSEDSAVYYCQQYNNWPHFGQGTRLEIK	no binding (tested: FOI >=10 = positive)			
mAb 167 (antibody, V domains shown) VH: EVHLVESGGGLVQPGRSLRLSCAASGFTFDDYAMHWVRQAPGKGLEWVSGISWNSGTIGYADSVKGRFTISRDNAKNSLYLEMNSLRAEDTALYYCAKDSSGYGHYYHYYIDVWGTGTTVTVSS VL: EIVMTQSPATLSVSPGGRATLSCRASQSVGSNLAWYQQKPGQAPRLLIYDASTRATGIPARFRGSGSGTEFTLTISGLQSEDFAVYYCQLYYNWPHFGQGTRLEIK	no binding (tested: FOI >=10 = positive)			
mAb 172 (antibody, V domains shown) VH: EVQLVESGGGLVQPGRSLRLSCTTSGFTFDDYTMHWVRQVPGKGLEWVSDISWNSGSVGYADSVKGRFTISRDNAKNSLYLQMNSLRAEDTALYYCVKDSSGYGHYFHYYMDVWGKGTTVTVSS VL: DIQMTQSPSSLSASVGDRVTITCRASQSISNYLNWYQVKPGKAPKVLIYAASSLQSGVPSRFSGSGSGTDFTLTISSLQPEDFVSYYCHQSYNAPITFGQGTRLESK		no binding (tested: FOI <10 (FOI >=10 = positive); 25 nM)		
mAb 173 (antibody, V domains shown) VH: EVQLVESGGGLVQPGRSLRLSCAASGFTFDDYTMHWVRQVPGKGLEWVSDISWNSGSVGYADSVKGRFTISRDNAKNSLYLQMNSLRAEDTALYYCVKDSSGYGHYFHYYMDVWGKGTTVTVSS VL: DIQMTQSPSSLSASVGDRVTITCRASQSISNYLNWYQVKPGKAPKVLIYAASSLQSGVPSRFSGSGSGTDFTLTISSLQPEDFVSYYCHQSYNTPITFGQGTRLEIK		no binding (tested: FOI <10 (FOI >=10 = positive); 25 nM)		
mAb 270 (antibody, V domains shown) VH: EIQLVESGGGLVQPGESLKLSCAGSGFTFSVSAMHWVRQASGKGLEWVGRIRNKANSYATAYDASVKGRFTLSRDDSRNTAYLQMNSLKTEDTAVYYCSSYYYLSGTYYNYWGQGTLVTVSS VL: DIQMTQSPSSLSASVGDRVTITCRASQVIRNDLGWYQQKPGKAPKRLIHSASSLQGGVPSRFSGSGSGTEFTLTISSLQPEDFATYYCQQHNVNPCTFGQGTKLEIK			no binding (tested: FOI <10 (FOI >=10 = positive); 25 nM)	no binding (tested: FOI <10 (FOI >=10 = positive); 25 nM)
mAb 271 (antibody, V domains shown) VH: EIQLVESGGGLVQPGESLKLSCAGSGFTFSVSAMHWVRQASGKGLEWVGRIRNKANSYATAYAASVKGRFTLSRDDSKNTAYLQMDSLKTEDTAVYYCSSYYYLSGTYYNYWGQGTLVTVSS VL: DIQMTQSPSSLSASVGDRVTITCRASQVIRNDLGWYQQKPGKAPKRLIHSASSLQGGVPSRFSGSGSGTEFTLTISSLQPEDFATYYCQQHNVNPCTFGQGTKLEIK			no binding (tested: FOI <10 (FOI >=10 = positive); 25 nM)	no binding (tested: FOI <10 (FOI >=10 = positive); 25 nM)
mAb 272 (antibody, V domains shown) VH: EIQLVESGGGLVQPGESLKLSCAGSGFTFSVSAMHWVRQASGKGLEWVGRIRNKANSYATAYAASVKGRFTLSRDDSKNTAYLQMNSLKTEDTAVYYCSSYYYLSGTYYNYWGQGTLVTVSS VL: DIQMTQSPSSLSASVGDRVTITCRASQVIRNDLGWYQQKPGKAPKRLIHSASSLQGGVPSRFSGSGSGTEFTLTISSLQPEDFATYYCQQHNVNPCTFGQGTKLEIK			no binding (tested: FOI <10 (FOI >=10 = positive); 25 nM)	no binding (tested: FOI <10 (FOI >=10 = positive); 25 nM)
mAb 273 (antibody, V domains shown) VH: EVQLVESGGGLVQPGESLKLSCTASGFTFSVSAIHWVRQASGKGLEWVGRIRSKANSYATAYVASVKGRFTLSRDDSKNTAYLQMNSLKTEDTAVYYCSSYYFVSGTYYNHWGQGTLVTVSS VL: DIQMTQSPSSLSASVGDRVTITCRASQGIRYDLGWYQQKPGRAPKRLIHSVSSLQSGVPSRFSGSGSGTEFTLTISSLQPEDFATYYCLQHNVNPCTFGQGTKLEIK		no binding (tested: FOI <10 (FOI >=10 = positive); 25 nM)		
mAb 77 (antibody, V domains shown) VH: EVQLVESGGGLVQPGGSLRLSCAASGFTFSNYWMSWVRQAPGKGLEWVANIKQDGSEKYYVDSVRGRFTISRDNAKKSLYLQMNSLRAEDTAVYYCARDNSNYAYWYFDIWGRGTLVTVSS VL: DIQMTQSPSTLSVSVGDRVTITCRASQSIRKWLAWYQQKPGKAPKLLIFKASSLESGVPSRFSGSGSGTEFTLTISSLQPDDFATYYCQQYDTYSRTFGQGTKVEIK	no binding (tested: FOI >=10 = positive)			
